Assay: FTIR spectrometry of SC lipid order (Franz diffusion cells)
Set-up: species or system C57BL/6J mice
Conditions: mouse dorsal skin SC, 24 h, positive control

For `CCCCCCCC/C=C\CCCCCCCC(=O)O` [Oleic acid, oleic acid], the “Blue shift of asymmetric methylene peak versus PBS-treated skin” value was 3 cm⁻¹ and the “Blue shift of symmetric methylene peak versus PBS-treated skin” value was 2.14 cm⁻¹.

Reference: publication PMC12695667 (Nature, 2025)
